From publication PMC6571141
These are yes or no findings as the source states them, for the method shown. In cells and extracts the contact can be indirect. Some results given as binding are weak or reduced against the parent protein; the word gives no strength.

Chains of the proteins cited; added tags and fusions are not shown.
UniProt P01100: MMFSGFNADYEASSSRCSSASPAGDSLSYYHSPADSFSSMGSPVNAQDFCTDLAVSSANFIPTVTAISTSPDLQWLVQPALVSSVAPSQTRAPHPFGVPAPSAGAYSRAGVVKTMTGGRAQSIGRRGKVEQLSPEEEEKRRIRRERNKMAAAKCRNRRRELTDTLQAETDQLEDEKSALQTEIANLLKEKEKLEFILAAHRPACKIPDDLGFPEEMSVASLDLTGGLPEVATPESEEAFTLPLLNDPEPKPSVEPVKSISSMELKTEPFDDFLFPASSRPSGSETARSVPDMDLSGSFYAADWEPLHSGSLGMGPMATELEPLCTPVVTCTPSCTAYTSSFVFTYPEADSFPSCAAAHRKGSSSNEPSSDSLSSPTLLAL
UniProt Q5VTD9: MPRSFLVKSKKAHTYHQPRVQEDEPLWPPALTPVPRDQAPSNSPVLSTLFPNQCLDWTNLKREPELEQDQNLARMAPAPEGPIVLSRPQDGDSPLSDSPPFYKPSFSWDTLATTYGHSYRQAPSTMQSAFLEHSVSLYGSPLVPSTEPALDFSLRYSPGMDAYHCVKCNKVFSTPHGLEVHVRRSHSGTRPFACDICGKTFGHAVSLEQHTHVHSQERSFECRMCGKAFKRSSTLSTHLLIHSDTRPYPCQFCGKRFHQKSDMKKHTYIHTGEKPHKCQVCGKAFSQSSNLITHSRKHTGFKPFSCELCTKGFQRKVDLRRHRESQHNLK
UniProt P23769: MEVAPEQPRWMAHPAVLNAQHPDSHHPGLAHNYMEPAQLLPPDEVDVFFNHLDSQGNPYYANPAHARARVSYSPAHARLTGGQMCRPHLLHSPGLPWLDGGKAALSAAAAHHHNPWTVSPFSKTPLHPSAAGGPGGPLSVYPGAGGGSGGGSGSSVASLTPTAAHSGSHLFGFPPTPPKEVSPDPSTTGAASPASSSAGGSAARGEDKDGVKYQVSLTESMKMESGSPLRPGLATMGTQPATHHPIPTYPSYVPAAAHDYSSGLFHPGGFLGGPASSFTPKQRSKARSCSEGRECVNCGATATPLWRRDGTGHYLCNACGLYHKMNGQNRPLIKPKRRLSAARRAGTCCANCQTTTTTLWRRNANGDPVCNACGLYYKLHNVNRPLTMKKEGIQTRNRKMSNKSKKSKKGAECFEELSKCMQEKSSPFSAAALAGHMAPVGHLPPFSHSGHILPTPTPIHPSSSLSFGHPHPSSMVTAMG

Columns and labels:
Experiment in all cases: co-IP; nuclear extracts of HDFs 48 hr after Dox induction of GATA2, GFI1B and FOS together; 5 ug of each antibody; immune complexes washed four times with lysis buffer; control IP with rabbit IgG; western blot
FOS (human) = FOS (human) (UniProt P01100)
HA-tagged GFI1B (human) = HA-tagged GFI1B (human) (UniProt Q5VTD9)
[1] = target: 3xFLAG-tagged GATA2 (human) (UniProt P23769)

Row | binding (FOS (human)) | binding (HA-tagged GFI1B (human)) | binding [1] | Substance
1 | binds | binds | – | 3xFLAG-tagged GATA2 (from UniProt P23769 1-480)
2 | – | – | binds | FOS (from UniProt P01100 1-380)
